Reference: PubChem BioAssay AID1259425 (University of Nebraska Medical Center, 2018)
Here is an unselected part of about 14,000 reagents tested. No sequences are given here. The record does not give: the time to read-out.

- Test: 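Seek colon cancer weak points whose silencing resembles KSR1 loss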 (primary screen)
- System: HCT116 human colon cancer cells
- Reagents: siRNA pool against human genes, 50 nM siRNA
- Detection: 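After 50 nM siRNA pool, branched-DNA assay measures six marker transcripts per well, minus blank, normalised to the geometric mean of two housekeeping transcripts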
- Scale: BNIP3L mRNA: higher = more BNIP3L transcript after knockdown; NDRG1 mRNA: higher = more NDRG1 transcript after knockdown; BNIP3 mRNA: higher = more BNIP3 transcript after knockdown; ALDOC mRNA: higher = more ALDOC transcript after knockdown; ACSL5 mRNA: higher = more ACSL5 transcript after knockdown

Gene	PubChem SID	BNIP3L mRNA, set 1	NDRG1 mRNA, set 1	BNIP3 mRNA, set 1	ALDOC mRNA, set 1	ACSL5 mRNA, set 1
EDN2 (GeneID 1907)	SID363993168	0.143	0.588	0.508	0.022	0.416
WDR45B (GeneID 56270)	SID364001440	0.108	0.19	0.354	0.0301	0.181
FOXB1 (GeneID 27023)	SID363998120	0.199	0.214	0.414	0.0299	0.123
CLN5 (GeneID 1203)	SID363997290	0.19	0.221	0.501	0.0556	0.27
ACOX2 (GeneID 8309)	SID363994596	0.382	0.452	0.522	0.0817	0.448
ZNF202 (GeneID 7753)	SID363994555	0.0981	0.705	0.333	0.0175	0.08
MAP7 (GeneID 9053)	SID363995033	0.166	0.15	0.375	0.0767	0.165
UBAP2 (GeneID 55833)	SID364001082	0.11	0.0812	0.277	0.0246	0.0625
RBM22 (GeneID 55696)	SID364000735	0.0835	0.21	0.36	0.0458	0.139
SIGLEC6 (GeneID 946)	SID363992530	0.0715	0.133	0.34	0.0271	0.137
NAALADL1 (GeneID 10004)	SID363996371	0.32	0.295	0.277	0.0626	0.245
RBM3 (GeneID 5935)	SID363997514	0.109	1.26	0.326	0.0112	0.28
TLE5 (GeneID 166)	SID363992423	0.146	0.232	0.363	0.0331	0.167
TM4SF4 (GeneID 7104)	SID363995585	0.122	0.201	0.21	0.0443	0.35
IL2RG (GeneID 3561)	SID363991541	0.0943	0.0803	0.266	0.0281	0.135
PBRM1 (GeneID 55193)	SID364000838	0.105	0.252	0.277	0.0356	0.111
HIF1AN (GeneID 55662)	SID364000627	0.215	0.219	0.303	0.0513	0.182
DENND4A (GeneID 10260)	SID363996722	0.0894	0.112	0.396	0.0107	0.209
NKX6-1 (GeneID 4825)	SID363996997	0.0548	0.116	0.238	0.017	0.235
SCGN (GeneID 10590)	SID363997735	0.102	0.257	0.415	0.0412	0.324
PDE1A (GeneID 5136)	SID363995958	0.0742	0.235	0.278	0.0209	0.178
THOC6 (GeneID 79228)	SID364002808	0.154	0.853	0.413	0.0212	0.29
MAN2B2 (GeneID 23324)	SID364005242	0.062	0.207	0.115	0.0323	0.16
RXRB (GeneID 6257)	SID364002265	0.0451	0.131	0.169	0.0213	0.0859
PSMD14 (GeneID 10213)	SID363996683	0.0494	0.129	0.111	0.0379	0.1
PSME2 (GeneID 5721)	SID363993974	0.0696	0.237	0.286	0.0277	0.293
PCDH9 (GeneID 5101)	SID364001667	0.0873	0.787	0.323	0.0264	0.106
C2CD2 (GeneID 25966)	SID364005066	0.0792	0.116	0.405	0.0108	0.174
MSMB (GeneID 4477)	SID363993621	0.0757	0.194	0.222	0.0365	0.0883
RPA4 (GeneID 29935)	SID363998456	0.121	0.185	0.343	0.0178	0.133
ZC3H7B (GeneID 23264)	SID364000383	0.126	0.181	0.293	0.031	0.0882
WDR7 (GeneID 23335)	SID363999397	0.468	0.889	-0.0149	0.172	0.277
NARF (GeneID 26502)	SID363998246	0.141	0.47	0.429	0.034	0.256
CEND1 (GeneID 51286)	SID364000198	0.0981	0.372	0.726	0.0089	0.164
MTR (GeneID 4548)	SID363991587	0.12	0.338	0.37	0.0103	0.181
NPM2 (GeneID 10361)	SID364004965	0.143	0.293	0.382	0.0462	0.257
AGL (GeneID 178)	SID363991367	0.06	0.233	0.257	0.0173	0.129
SEC24D (GeneID 9871)	SID363999129	0.0862	0.192	0.32	0.0156	0.195
PHKA1 (GeneID 5255)	SID363993805	0.0821	0.06	0.313	0.0173	0.15
RAB28 (GeneID 9364)	SID363995247	0.0792	0.12	0.254	0.0246	0.0897
RWDD2B (GeneID 10069)	SID364000277	0.16	0.196	0.311	0.0179	0.22
INHBB (GeneID 3625)	SID363993394	0.0765	0.379	0.259	0.0235	0.122
MRPL40 (GeneID 64976)	SID363994840	0.305	0.273	1.29	0.0944	0.14
MBTPS1 (GeneID 8720)	SID363994854	0.108	0.194	0.264	0.0177	0.143
ATP4A (GeneID 495)	SID363992002	0.0817	0.043	0.226	0.0218	0.113
XAB2 (GeneID 56949)	SID364001549	0.356	0.349	0.445	0.337	0.588
ITSN1 (GeneID 6453)	SID363994173	0.0508	0.0357	0.264	0.00657	0.0661
METAP1 (GeneID 23173)	SID363999327	0.0894	0.15	0.266	0.0363	0.0845
KLF1 (GeneID 10661)	SID363997354	0.127	0.189	0.3	0.0073	0.254
IL3 (GeneID 3562)	SID363991906	0.0343	0.161	0.202	0.0317	0.0786

Part of the list above, reformatted:
Gene,PubChem SID,"BNIP3L mRNA, set 1","NDRG1 mRNA, set 1","BNIP3 mRNA, set 1","ALDOC mRNA, set 1","ACSL5 mRNA, set 1"
ATP4A (GeneID 495),SID363992002,0.0817,0.043,0.226,0.0218,0.113
XAB2 (GeneID 56949),SID364001549,0.356,0.349,0.445,0.337,0.588
ITSN1 (GeneID 6453),SID363994173,0.0508,0.0357,0.264,0.00657,0.0661
METAP1 (GeneID 23173),SID363999327,0.0894,0.15,0.266,0.0363,0.0845
KLF1 (GeneID 10661),SID363997354,0.127,0.189,0.3,0.0073,0.254
